Laboratory results from patent US20210238289A1.
Positions count from the first letter of the chain named. No constants are given. Whether binding was seen depends on the method and setting. Some binding calls cover weakened binding; strength is not graded here. Each block holds one binder with its values, some of them ahead of it.

Chains of the proteins cited; added tags and fusions are not shown. Lines headed by an entry give the natural chain unless they say otherwise; changes in a name come on top.
UniProt P13612: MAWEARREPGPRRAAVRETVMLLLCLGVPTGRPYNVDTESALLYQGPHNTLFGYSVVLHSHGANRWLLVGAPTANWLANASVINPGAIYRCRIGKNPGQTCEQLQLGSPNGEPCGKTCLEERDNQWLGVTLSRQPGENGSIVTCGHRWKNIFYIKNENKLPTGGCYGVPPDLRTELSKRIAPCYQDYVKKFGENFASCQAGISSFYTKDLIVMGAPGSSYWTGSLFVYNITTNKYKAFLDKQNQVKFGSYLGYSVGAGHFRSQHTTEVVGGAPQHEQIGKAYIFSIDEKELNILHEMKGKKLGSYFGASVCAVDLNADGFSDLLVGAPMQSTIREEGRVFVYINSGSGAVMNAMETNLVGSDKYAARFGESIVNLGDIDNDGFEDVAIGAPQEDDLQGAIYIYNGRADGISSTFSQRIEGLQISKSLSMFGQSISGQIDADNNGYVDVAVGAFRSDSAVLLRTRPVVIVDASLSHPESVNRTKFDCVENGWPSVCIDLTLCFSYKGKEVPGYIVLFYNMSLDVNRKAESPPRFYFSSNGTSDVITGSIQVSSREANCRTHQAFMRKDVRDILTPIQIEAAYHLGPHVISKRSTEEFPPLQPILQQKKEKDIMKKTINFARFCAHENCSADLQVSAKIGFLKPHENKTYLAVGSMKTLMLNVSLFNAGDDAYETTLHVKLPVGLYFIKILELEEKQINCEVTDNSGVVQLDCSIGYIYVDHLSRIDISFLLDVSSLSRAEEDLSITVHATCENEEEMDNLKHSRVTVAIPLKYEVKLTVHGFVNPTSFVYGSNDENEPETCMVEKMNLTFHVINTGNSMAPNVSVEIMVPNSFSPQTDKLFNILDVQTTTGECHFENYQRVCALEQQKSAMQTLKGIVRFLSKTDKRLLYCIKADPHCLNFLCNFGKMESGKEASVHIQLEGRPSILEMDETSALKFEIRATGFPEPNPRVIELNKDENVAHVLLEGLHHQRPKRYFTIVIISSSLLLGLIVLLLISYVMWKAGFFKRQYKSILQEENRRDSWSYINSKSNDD

Target: α4β1 (VLA-4) as used in the competition ELISAs (UniProt P13612)
Experiment: competition ELISA (Table 2)

binding: binds
B1: H1L2 (antibody, V domains shown)
VH: EVQLVQSGAEVKKPGATVKISCKASGFNIKDTYMHWVQQAPGKGLEWMGRIDPASGDTKYDPKFQVRVTITADTSTDTAYMELSSLRSEDTAVYYCADGMWVSTGYALDFWGQGTLVTVSS
VL: SIVMTQSPDSLAVSLGERATINCKASQSVTNDVAWYQQKPGQPPKLLIYYASNRYTGVPDRFSGSGYGTDFTLTISSLQAEDVAVYFCQQDYSSPYTFGQGTKVEIK

binding: binds
B2: H1L3 (antibody, V domains shown)
VH: B1 VH
VL: B1 VL with L73F, V85T
